Measurements from “University of Dundee, Small-Polar-MMV Screening Library” (2021), ChEMBL document CHEMBL3988442.

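Assay of Toxoplasma gondii numbers, read through their beta-galactosidase reporter with a colour substrate. Compounds at 50 µM. Higher reads as fewer parasites (inferred from which compounds were picked for retests). Size under these conditions: about 18,000 compounds, about 170 of them at 50% or above in at least one test.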

Values are the deposited “Percent Effect”, in %. The controls that fix the scale are not given in the record; negative values are as filed. Compounds were drawn at random from those tested, without regard to their results.

Result for COCC1CCN(C(=O)CCn2nc(C)c(C)c2C)C1 (stereo unspecified) was 17.66%.
Result for O=C(CSc1nnc(-c2ccccc2F)o1)NC1CC1 was -13.11%.
Result for COc1ccc(Cl)cc1C(O)CN (stereo unspecified) was 0.2294%.
Result for O=C(Cn1nnc2ccccc21)N1CCSCC1 was 0.9615%.
Result for NC(=O)CCN1CCCC1c1ccsc1 (stereo unspecified) was -15.75%.
Result for CSc1ccccc1C(=O)NCCSc1nnnn1C was -10.69%.
Result for COC(C)C(=O)Nc1cccc2c(=O)n(C)ccc12 (stereo unspecified) was -11.88%.
Result for CCS(=O)(=O)NCCNS(=O)(=O)c1ccc(C)cc1Cl was -23.62%.
Result for O=C(CNc1ncnc2sccc12)N1CCCC1 was -3.34%.
Result for CCN(Cc1noc(C)n1)Cc1cncn1CC was -8.892%.
Result for CN(CC(=O)NC1CC1)c1ncnc2c1cnn2C was -15.23%.
Result for CCc1nn(C)c(CC)c1S(=O)(=O)N(C)CC(C)O (stereo unspecified) was 3.499%.
Result for CC(NC(=O)CNC(=O)C1CC1)c1ccc(F)c(F)c1 (stereo unspecified) was 3.037%.
Result for CCOC(=O)c1ncsc1Cl was 13.62%.
Result for CC(C)c1nsc(NCC(O)CN2CCOCC2)n1 (stereo unspecified) was -2.576%.
Result for CC(C(=O)N(C)c1ccccc1)N1CCC(O)CC1 (stereo unspecified) was 12.47%.
Result for CCN(CC)CC(=O)Nc1c2c(nn1C)CCC2 was 15.15%.
Result for CCCN(CCC)S(=O)(=O)N1CCNCC1 was 18.09%.
Result for CNC1CCN(c2cc(OC)cc(OC)c2)C1 (stereo unspecified) was -16.53%.
Result for CS(=O)(=O)NCCNS(=O)(=O)c1ccc2c(c1)CCC2 was -3.536%.
Result for CC(N)c1ccc2c(c1)CCN2 (stereo unspecified) was 1.322%.
Result for Cn1ccnc1-c1nnc(NCc2ncc(Cl)n2C)o1 was 22.9%.
Result for c1cncc(CCNc2ccc3nnnn3n2)c1 was -5.045%.
Result for Cc1cc2c(cc1S(=O)(=O)N1CCCC(N)C1)OCO2 (stereo unspecified) was 6.23%.
Result for CCc1nc(CN(C)Cc2nc(CSC)no2)no1 was -7.012%.
Result for O=C(NCCCn1ccnn1)[C@H]1CC[C@@H](O)CC1 was -12.44%.
Result for COc1c(CNCc2nncn2C)c(C)nn1C was -4.617%.
Result for COCCNC1CCCC1 was -4.953%.
Result for COc1ccc(NC(=O)NC2CCN(C)CC2)cc1 was -4.089%.

The last 2 entries again:

| SMILES | Percent Effect |
|---|---|
| `COCCNC1CCCC1` | -4.953 |
| `COc1ccc(NC(=O)NC2CCN(C)CC2)cc1` | -4.089 |